Assay results reported in the supplement of paper PMC10849652.
Some of the results follow.

Chains of the proteins cited; added tags and fusions are not shown. Lines headed by an entry give the natural chain unless they say otherwise; changes in a name come on top.
UniProt Q9BRK3: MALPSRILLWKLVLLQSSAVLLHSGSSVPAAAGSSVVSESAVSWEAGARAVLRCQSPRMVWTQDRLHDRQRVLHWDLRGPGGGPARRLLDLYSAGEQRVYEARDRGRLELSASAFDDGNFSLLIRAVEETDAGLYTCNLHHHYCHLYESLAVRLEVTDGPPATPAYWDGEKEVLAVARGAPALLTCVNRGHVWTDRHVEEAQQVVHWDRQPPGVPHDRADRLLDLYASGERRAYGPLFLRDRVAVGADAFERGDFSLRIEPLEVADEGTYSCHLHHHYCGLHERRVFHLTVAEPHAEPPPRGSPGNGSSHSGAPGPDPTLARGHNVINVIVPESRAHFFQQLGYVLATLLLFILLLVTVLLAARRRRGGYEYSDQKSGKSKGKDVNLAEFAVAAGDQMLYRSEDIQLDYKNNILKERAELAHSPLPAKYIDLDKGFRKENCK
UniProt P03886, whole entry, looked up: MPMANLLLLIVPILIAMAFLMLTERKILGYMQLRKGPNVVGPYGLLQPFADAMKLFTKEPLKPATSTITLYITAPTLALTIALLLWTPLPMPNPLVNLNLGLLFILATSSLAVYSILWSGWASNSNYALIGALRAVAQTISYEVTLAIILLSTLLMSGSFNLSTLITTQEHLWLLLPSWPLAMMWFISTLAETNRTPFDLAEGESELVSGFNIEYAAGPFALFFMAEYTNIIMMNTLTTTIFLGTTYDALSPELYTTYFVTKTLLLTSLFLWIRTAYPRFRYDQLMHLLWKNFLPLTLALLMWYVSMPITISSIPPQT
UniProt G3V1V0: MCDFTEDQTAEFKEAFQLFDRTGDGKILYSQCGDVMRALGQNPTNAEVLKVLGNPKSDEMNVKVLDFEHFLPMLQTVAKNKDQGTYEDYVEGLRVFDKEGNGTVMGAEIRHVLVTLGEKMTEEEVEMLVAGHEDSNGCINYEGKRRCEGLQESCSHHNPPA
UniProt Q9H6N6: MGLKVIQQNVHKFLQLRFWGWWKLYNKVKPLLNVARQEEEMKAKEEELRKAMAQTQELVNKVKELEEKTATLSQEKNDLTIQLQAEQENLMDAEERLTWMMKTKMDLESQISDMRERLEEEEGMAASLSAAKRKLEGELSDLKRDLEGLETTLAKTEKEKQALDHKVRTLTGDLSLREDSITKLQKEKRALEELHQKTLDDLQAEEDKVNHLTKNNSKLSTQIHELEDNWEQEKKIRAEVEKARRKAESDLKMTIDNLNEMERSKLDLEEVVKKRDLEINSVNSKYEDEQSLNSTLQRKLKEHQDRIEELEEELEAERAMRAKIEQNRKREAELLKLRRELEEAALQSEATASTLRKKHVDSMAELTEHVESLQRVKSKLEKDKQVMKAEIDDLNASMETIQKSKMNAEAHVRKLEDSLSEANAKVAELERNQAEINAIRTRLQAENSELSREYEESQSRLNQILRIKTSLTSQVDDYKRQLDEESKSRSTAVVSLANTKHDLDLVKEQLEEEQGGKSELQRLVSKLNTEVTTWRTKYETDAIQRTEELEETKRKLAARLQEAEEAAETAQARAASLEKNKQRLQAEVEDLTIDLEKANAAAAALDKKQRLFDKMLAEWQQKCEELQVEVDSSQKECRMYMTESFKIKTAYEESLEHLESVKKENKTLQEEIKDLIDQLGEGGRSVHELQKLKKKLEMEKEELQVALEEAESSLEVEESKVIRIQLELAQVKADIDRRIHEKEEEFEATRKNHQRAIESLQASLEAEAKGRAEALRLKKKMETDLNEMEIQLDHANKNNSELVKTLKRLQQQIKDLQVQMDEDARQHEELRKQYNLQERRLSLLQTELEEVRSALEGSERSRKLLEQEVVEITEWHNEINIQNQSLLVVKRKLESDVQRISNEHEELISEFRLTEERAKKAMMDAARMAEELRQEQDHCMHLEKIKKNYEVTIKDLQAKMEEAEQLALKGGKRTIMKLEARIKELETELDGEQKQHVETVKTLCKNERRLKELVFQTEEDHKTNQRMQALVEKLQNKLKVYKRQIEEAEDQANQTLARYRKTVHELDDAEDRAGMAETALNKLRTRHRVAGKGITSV
UniProt P11586, whole entry, looked up: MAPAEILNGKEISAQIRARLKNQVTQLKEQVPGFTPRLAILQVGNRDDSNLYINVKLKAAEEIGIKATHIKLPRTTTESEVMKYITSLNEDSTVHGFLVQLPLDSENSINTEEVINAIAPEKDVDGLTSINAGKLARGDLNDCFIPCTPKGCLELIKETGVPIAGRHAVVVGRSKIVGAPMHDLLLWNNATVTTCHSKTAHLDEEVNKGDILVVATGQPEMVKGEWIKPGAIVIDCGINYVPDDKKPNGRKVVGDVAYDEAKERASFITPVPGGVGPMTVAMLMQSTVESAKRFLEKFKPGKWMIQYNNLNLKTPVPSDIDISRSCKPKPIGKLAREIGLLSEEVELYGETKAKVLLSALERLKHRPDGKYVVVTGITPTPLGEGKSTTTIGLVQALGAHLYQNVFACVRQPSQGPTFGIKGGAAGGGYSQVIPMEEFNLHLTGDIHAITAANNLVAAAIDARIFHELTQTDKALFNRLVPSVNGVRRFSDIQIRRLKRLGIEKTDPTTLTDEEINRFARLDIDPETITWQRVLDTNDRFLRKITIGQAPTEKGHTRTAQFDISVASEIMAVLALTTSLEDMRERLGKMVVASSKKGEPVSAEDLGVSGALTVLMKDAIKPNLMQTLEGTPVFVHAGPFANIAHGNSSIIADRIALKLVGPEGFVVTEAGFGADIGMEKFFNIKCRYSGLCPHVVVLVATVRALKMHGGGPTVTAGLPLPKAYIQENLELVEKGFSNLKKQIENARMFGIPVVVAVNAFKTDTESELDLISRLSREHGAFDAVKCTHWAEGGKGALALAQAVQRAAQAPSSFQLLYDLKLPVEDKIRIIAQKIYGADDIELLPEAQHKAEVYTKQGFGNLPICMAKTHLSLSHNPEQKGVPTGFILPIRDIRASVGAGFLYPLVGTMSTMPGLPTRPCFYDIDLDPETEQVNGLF
UniProt P13640: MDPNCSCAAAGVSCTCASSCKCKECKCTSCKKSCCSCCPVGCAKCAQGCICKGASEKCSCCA
UniProt Q9H019: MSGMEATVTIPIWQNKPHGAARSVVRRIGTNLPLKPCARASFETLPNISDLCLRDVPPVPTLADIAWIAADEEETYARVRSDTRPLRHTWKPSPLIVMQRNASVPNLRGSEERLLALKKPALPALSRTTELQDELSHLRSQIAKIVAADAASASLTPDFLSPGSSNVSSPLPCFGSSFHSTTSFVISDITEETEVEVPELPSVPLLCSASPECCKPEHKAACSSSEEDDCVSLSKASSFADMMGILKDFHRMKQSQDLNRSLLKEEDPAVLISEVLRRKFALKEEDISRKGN
UniProt Q9NYA4: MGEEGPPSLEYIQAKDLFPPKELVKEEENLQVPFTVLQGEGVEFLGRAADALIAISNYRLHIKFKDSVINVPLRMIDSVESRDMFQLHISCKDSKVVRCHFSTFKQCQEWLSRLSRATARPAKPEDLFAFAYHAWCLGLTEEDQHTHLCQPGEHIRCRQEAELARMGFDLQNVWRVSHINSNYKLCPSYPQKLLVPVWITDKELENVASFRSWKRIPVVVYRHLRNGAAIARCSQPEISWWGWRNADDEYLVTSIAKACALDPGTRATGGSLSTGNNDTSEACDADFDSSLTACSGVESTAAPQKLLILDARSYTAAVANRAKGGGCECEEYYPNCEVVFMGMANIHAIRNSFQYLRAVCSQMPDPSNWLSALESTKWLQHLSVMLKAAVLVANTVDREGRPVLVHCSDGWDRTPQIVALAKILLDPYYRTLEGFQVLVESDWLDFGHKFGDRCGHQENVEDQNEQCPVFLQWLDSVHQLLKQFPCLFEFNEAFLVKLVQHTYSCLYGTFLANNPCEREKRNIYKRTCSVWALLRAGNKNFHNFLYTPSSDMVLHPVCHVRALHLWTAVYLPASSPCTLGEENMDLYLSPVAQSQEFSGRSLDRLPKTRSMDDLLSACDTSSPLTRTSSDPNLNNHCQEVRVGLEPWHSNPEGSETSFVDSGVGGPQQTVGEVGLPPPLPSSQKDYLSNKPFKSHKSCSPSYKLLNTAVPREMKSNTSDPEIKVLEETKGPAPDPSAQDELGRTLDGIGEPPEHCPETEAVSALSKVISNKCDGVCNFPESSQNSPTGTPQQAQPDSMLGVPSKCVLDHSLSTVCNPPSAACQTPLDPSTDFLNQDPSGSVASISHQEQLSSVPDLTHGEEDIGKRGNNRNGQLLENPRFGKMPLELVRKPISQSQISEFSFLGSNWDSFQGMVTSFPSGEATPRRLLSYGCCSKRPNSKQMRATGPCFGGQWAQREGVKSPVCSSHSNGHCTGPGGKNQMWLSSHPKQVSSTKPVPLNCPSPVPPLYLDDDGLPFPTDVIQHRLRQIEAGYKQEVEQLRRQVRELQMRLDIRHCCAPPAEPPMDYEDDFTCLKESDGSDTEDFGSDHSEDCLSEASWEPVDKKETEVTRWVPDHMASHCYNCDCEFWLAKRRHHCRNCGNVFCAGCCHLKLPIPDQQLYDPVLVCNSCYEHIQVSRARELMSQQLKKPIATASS
UniProt Q9Y2Z2: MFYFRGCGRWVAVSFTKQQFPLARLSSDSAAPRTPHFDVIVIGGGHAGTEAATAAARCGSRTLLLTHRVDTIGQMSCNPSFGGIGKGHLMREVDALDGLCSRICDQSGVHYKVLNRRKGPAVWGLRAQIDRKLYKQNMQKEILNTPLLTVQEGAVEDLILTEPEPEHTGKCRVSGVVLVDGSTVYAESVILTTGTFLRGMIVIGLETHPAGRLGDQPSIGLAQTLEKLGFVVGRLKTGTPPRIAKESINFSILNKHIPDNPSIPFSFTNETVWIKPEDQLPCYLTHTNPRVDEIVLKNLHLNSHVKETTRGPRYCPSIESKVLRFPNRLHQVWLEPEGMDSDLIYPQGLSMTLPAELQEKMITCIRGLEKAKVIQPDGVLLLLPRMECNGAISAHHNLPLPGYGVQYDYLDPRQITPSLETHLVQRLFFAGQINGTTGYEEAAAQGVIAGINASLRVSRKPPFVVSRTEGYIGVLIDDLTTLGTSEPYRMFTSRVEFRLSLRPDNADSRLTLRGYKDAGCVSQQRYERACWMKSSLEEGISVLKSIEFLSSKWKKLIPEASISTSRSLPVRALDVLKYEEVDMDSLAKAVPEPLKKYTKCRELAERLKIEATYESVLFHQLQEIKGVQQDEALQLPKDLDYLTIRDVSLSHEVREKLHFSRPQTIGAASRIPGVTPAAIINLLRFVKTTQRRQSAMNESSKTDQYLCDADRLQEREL
UniProt Q8TAX7: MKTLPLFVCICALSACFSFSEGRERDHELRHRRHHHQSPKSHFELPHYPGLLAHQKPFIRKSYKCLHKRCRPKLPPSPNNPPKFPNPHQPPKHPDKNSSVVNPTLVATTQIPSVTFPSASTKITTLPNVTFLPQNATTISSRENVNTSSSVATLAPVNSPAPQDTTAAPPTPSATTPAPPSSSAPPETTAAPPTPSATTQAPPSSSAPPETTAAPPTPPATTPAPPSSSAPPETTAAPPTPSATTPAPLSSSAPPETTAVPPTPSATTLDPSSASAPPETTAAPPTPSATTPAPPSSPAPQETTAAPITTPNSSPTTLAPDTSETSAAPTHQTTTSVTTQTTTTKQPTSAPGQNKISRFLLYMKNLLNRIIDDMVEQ
UniProt Q9NXD2: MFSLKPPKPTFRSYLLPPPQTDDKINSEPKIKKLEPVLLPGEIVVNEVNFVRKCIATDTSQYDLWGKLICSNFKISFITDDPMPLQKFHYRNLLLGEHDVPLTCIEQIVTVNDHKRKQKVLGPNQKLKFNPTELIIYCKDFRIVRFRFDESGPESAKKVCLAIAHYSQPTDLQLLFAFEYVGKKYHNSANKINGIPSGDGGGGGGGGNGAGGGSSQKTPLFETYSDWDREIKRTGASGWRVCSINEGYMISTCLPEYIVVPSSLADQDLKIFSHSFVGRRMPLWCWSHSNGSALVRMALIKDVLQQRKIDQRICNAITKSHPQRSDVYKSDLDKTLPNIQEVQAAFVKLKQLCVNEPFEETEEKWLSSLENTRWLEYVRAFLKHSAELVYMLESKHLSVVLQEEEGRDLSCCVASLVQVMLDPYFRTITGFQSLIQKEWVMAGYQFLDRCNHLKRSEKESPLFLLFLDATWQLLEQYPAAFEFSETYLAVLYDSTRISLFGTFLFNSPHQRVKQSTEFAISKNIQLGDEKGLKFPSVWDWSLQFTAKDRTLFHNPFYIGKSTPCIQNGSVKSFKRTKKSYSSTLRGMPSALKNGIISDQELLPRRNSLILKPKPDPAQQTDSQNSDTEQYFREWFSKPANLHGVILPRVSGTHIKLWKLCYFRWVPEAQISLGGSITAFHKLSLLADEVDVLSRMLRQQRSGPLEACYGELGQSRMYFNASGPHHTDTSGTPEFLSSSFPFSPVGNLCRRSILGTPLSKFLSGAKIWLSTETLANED

compound: CCN(CC)Cc1ccc2cc(COC(=O)Nc3ccc(C(=O)NO)cc3)ccc2c1 [givinostat]; assay: log2 fold change, soluble protein after heating vs DMSO (PISA); higher = thermal stabilisation; K562 cells, 10 uM, 30 min; active = over 0.2 and 3.5 SD of the protein, either way, in both replicates (recomputed)
Procedure, shortened: (§1)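 Soluble protein was quantified by TMTpro 16plex LC-MS/MS after channel sums were equalised. It was obtained as the supernatant after 21,000xg for 90 min from pooled aliquots of K562 cells (2×10^6 cells/mL, 10 μM compound, 30 min) heated for 3 min across 48°C-58°C and extracted in PBS with 0.5% NP-40 at 4°C. Thermal stability values are relative to control samples and come from duplicates. They are given as log2 fold changes.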

log2 fold change, inactive:
MXRA8 isoform 2 (UniProt Q9BRK3) 0.01
MT-ND1 (UniProt P03886) 0.057
MTHFSD isoform 3 (UniProt Q2M296) 0.033
MYL6 (UniProt G3V1V0) -0.021
MRPS15 (UniProt P82914) 0.027
MTCH2 (UniProt E9PIE4) 0.009
MYO9A isoform 4 (UniProt B2RTY4) 0.084
MYO18B isoform 3 (UniProt Q8IUG5) 0.113
MYH16 (UniProt Q9H6N6) -0.072
MTERF3 (UniProt Q96E29) 0.016
MTHFD1 (UniProt P11586) 0.048
MYLK (UniProt Q15746) -0.132
MRPS18C (UniProt Q9Y3D5) 0.093
MTA3 (UniProt Q9BTC8) 0
MTMR14 (UniProt Q8NCE2) 0.061
MT-CO1 (UniProt P00395) -0.068
MT1G (UniProt P13640) -0.091
MTFR1L (UniProt Q9H019) 0.031
MRPS16 (UniProt Q9Y3D3) 0.031
MRPS21 (UniProt P82921) -0.016
MTMR4 (UniProt Q9NYA4) 0.206
MRPS26 (UniProt Q9BYN8) 0.098
MTERF4 (UniProt Q7Z6M4) -0.044
MTO1 isoform 6 (UniProt Q9Y2Z2) 0.048

compound: CCN(CCCOc1ccc2c(Nc3cc(CC(=O)Nc4cccc(F)c4)[nH]n3)ncnc2c1)CCOP(=O)(O)O [barasertib]; assay: as above
Procedure, shortened: as §1

log2 fold change, inactive:
MXRA8 isoform 2 (UniProt Q9BRK3) 0.237
MUC7 (UniProt Q8TAX7) 0.27
MT-ND1 (UniProt P03886) 0.127
MTHFSD isoform 3 (UniProt Q2M296) -0.027
MYL6 (UniProt G3V1V0) -0.059
MRPS15 (UniProt P82914) 0.004
MTCH2 (UniProt E9PIE4) -0.032
MYO9A isoform 4 (UniProt B2RTY4) -0.029
MYO18B isoform 3 (UniProt Q8IUG5) 0.117
MYH16 (UniProt Q9H6N6) -0.069
MTERF3 (UniProt Q96E29) -0.132
MRPS14 (UniProt O60783) 0.081
MTHFD1, A0A384N5Y3 0.044
MTHFD1 (UniProt P11586) 0.038
MYLK (UniProt Q15746) 0.032
MRPS18C (UniProt Q9Y3D5) -0.052
MTMR10 (UniProt Q9NXD2) -0.043
MTMR14 (UniProt Q8NCE2) 0.019
MT-CO1 (UniProt P00395) -0.075
MYD88 isoform 6 (UniProt Q99836) -0.248
MT1G (UniProt P13640) -0.001
MTFR1L (UniProt Q9H019) -0.026
MRPS16 (UniProt Q9Y3D3) -0.084
MRPS21 (UniProt P82921) -0.156
MTMR1 (UniProt Q13613) -0.004
MRPS26 (UniProt Q9BYN8) 0.026
